From US10160783B2, “Neuroactive 13, 17-substituted steroids as modulators for GABA type-A receptors” (priority 2013, dated 2018)

Tests used:
[1] = test system: picrotoxin binding site on GABAA receptors; experiment: [35S]-TBPS displacement (inhibition of [35S]-TBPS binding); conditions: Hill coefficient of the TBPS displacement curve; ± SEM
Method: The IC50 values for non-competitive displacers of [^35S]-TBPS from the picrotoxin binding site on GABAA receptors are reported in Table 1.
Results presented are from duplicate experiments performed in triplicate. Error limits are calculated as standard error of the mean. Methods used are known in the art (see Jiang, X., et al., Neurosteroid analogues. 9. Conformationally constrained pregnanes: structure-activity studies of 13,24-cyclo-18,21-dinorcholane analogues of the GABA modulatory and anesthetic steroids (3α,5α)- and […]. J. Med. Chem., 46: 5334-48 (2003)—the contents of which are hereby incorporated by reference in their entirety).

Tadpole = Tadpole loss of righting reflex (LRR) and loss of swimming reflex (LSR); format: in vivo; conditions: Hill coefficient, ± SEM; for Tadpole LRR nHill: loss of righting reflex; for Tadpole LSR nHill: loss of swimming reflex
Method: Table 3 discloses the anesthetic effects of the compounds of the present disclosure. In particular, the anesthetic effect of the compounds of the present disclosure on Loss of Righting Reflex (LRR) and Loss of Swimming Reflex (LSR).
Methods used are known in the art (see Jiang, X., et al.). Error limits are calculated as standard error of the mean (N=10 or more animals at each of five or more different concentrations).

| SMILES | nHill, Inhibition of [35S]-TBPS Binding [1] | Tadpole LRR nHill (Tadpole) | Tadpole LSR nHill (Tadpole) |
| --- | --- | --- | --- |
| CC(=O)[C@]12CC[C@H]3[C@@H](CC[C@H]4C[C@H](O)CC[C@@]43C)[C@@H]1CC[C@@H]2CO [ZYC-73, 1-[(3α,5α,17β)-3-Hydroxy-17-hydroxymethyl-18-norandrostan-13-yl]ethanone] | 1.02 ± 0.13 | – | – |
| C=C[C@H]1CC[C@H]2[C@@H]3CC[C@H]4C[C@H](O)CC[C@]4(C)[C@H]3[C@@H](OC)C[C@]12C(C)=O [KK-144, 1-[(3α,5α,11β)-3-Hydroxy-11-methoxy-18-norpregn-20-en-13-yl]ethanone] | 1.31 ± 0.32 | −2.25 ± 0.15 | −33.3 ± 0.1 |
| CC(=O)[C@]12CC[C@H]3[C@@H](CC[C@H]4C[C@H](O)CC[C@@]43C)[C@@H]1CC[C@@H]2[C@@H](C)O [ZYC-72, (3α,5α,20R)-13-Acetyl-18-norpregnane-3,20-diol] | 0.70 ± 0.24 | −21.3 ± 0.0 | – |
| C=C[C@H]1CC[C@H]2[C@@H]3CC[C@H]4C[C@H](O)CC[C@]4(C)[C@H]3CC[C@]12C(C)=O [XJ-99, 1-[(3α,5α)-3-Hydroxy-18-norpregn-20-en-13-yl]ethanone] | 1.43 ± 0.44 | −2.90 ± 0.05 | −3.95 ± 0.02 |
| C=C[C@H]1CC[C@H]2[C@@H]3CC[C@H]4C[C@H](O)CC[C@]4(COC)[C@H]3CC[C@]12C(C)=O [KK-145, 1-[(3α,5α)-3-Hydroxy-19-methoxy-18-norpregn-20-en-13-yl]ethanone] | 1.21 ± 0.10 | −2.55 ± 0.42 | −33.3 ± 0.1 |
| CC[C@H]1CC[C@H]2[C@@H]3CC[C@H]4C[C@H](O)CC[C@]4(C)[C@H]3CC[C@]12C(C)=O [XJ-100, 1-[(3α,5α)-3-Hydroxy-18-norpregnan-13-yl]ethanone] | 0.78 ± 0.24 | −1.23 ± 0.44 | – |
| CC(=O)[C@]12CC[C@H]3[C@@H](CC[C@H]4C[C@H](O)CC[C@@]43C)[C@@H]1CC[C@@H]2CCl [ZYC-74, 1-[(3α,5α,17β)-17-Chloromethy-3-hydroxy-18-norandrostan-13-yl]ethanone] | 1.02 ± 0.17 | −2.36 ± 2.35 | −33.2 ± 0.2 |
| C=C[C@H]1CC[C@H]2[C@@H]3C[C@@H](OC)[C@H]4C[C@H](O)CC[C@]4(C)[C@H]3CC[C@]12C(C)=O [KK-143, 1-[(3α,5α,6β)-3-Hydroxy-6-methoxy-18-norpregn-20-en-13-yl]ethanone] | 1.14 ± 0.08 | −1.80 ± 0.27 | −36.3 ± 0.1 |
| C=C[C@]12CC[C@H]3[C@@H](CC[C@H]4C[C@H](O)CC[C@@]43C)[C@@H]1CC[C@@H]2[C@@H](C)O [ZYC-76, (3α,5α,20R)-13-Ethenyl-18-norpregnan-3,20-diol] | 1.50 ± 0.21 | −1.64 ± 0.58 | −35.9 ± 0.1 |
| C=C[C@H]1CC[C@H]2[C@@H]3CC[C@H]4C[C@H](O)[C@@H](OC)C[C@]4(C)[C@H]3CC[C@]12C(C)=O [KK-140, 1-[(2β,3α,5α)-3-Hydroxy-2-Methoxy-18-norpregn-20-en-13-yl]ethanone] | 0.79 ± 0.07 | −1.80 ± 0.10 | −3.5 ± 0.3 |
| CC(=O)[C@H]1CC[C@H]2[C@@H]3CC[C@H]4C[C@H](O)CC[C@]4(C)[C@H]3CC[C@]12C(C)=O [ZYC-71, (3α,5α)-13-Acetyl-3-hydroxy-18-norpregnan-20-one] | 1.11 ± 0.08 | −4.00 ± 0.02 | −33.5 ± 0.1 |
